According to US20250057791A1, “PROTECTION AGAINST ARTHROPOD PARASITES WITH PURINERGIC RECEPTOR (OPR) ANTAGONISTS” (priority 2021, published 2025):

Tested on: A. gambiae labellum sensilla (purine-sensitive cell)
Experiment: Tip recording of action potentials from A. gambiae labellum sensilla in response to agonists
Format: cell-based, Anopheles gambiae
Settings: 200 pM ATP, 200 pM adenosine, 1 mM sucrose
Protocol: The tip recording method was used to record action potentials (spikes) from sensory cells in sensilla on A. gambiae labellum lobes.
Sensilla were exposed to test compounds and PR antagonists for ca. 2-4 s and spikes were counted in the first 2 s of recordings. Up to 4 test compounds were tested on a sensillum to evaluate potential agonists, each presented at 200 pM. To study responses as a function of dose for agonists ATP, adenosine, AMP, AMP-CPP and ATP+adenosine, up to 7 recordings were made at increasing doses of agonist from the same sensillum. […]
Spike counts elicited by 200 pM doses of nucleotides, nucleosides, purines, pyrimidines and water were log(x+1.25)-transformed (optimal constant numerically established using a maximum likelihood procedure) and analysed using a linear mixed effects model (function ‘lme’ in “nlme” R package) with mosquito number as random effect. […] Spike counts elicited by ATP, AMP, adenosine and their binary mixtures were analysed using a generalised linear model (LM) of log (x+10) transformed data and differences were identified using post-hoc-Tukey test with Holm's FWEC. […]
Dose-response models fitted to mosquito data were generated using the ‘drm’ command in the “drc” R package (version 2.5-12). Best fitting models (goodness of fit) and effects of dose of a compound were assessed using, respectively, ‘modelFit’ and ‘noEffect’ functions in the same R package. […]

Nc1ncnc2c1ncn2[C@@H]1O[C@H](COP(=O)(O)OP(=O)(O)OP(=O)(O)O)[C@@H](O)[C@H]1O [ATP, Adenosine 5′-triphosphate]
Spike amplitude (mean±s.e.m.): 2.49 mV
